Measurements as given in US20150087053A1, “COMPOSITIONS AND METHODS FOR INCREASING THE EXPRESSION AND SIGNALLING OF PROTEINS ON CELL SURFACES” (THE JOHNS HOPKINS UNIVERSITY, priority 2013, published 2015).

System: HEK293T cells
Experiment: Surface immunofluorescence (Flag antibody) of OR constructs in live non-permeabilized cells
Format: cell-based
Design: key to Trafficking (surface expression) of Flag-tagged OR / Trafficking (surface expression) of Flag-tagged Rho-OR: −: No detectable OR surface expression; +: OR surface expression detected in the majority of fields of view (>90% of all fields of view); *: OR surface expression detected in a minority of fields of view (<50% of all fields of view)
Details: for Trafficking (surface expression) of Flag-tagged OR: OR without Rho or Lucy tag

| Molecule | Trafficking (surface expression) of Flag-tagged Lucy-OR (chaperones RTP1S, Ric8b, Gαolf) | Trafficking (surface expression) of Flag-tagged Lucy-OR (chaperones: None) | Trafficking (surface expression) of Flag-tagged Lucy-Rho-OR (chaperones RTP1S, Ric8b, Gαolf) | Trafficking (surface expression) of Flag-tagged Lucy-Rho-OR (chaperones: None) | Trafficking (surface expression) of Flag-tagged OR (chaperones RTP1S, Ric8b, Gαolf) | Trafficking (surface expression) of Flag-tagged OR (chaperones: None) | Trafficking (surface expression) of Flag-tagged Rho-OR (chaperones RTP1S, Ric8b, Gαolf) | Trafficking (surface expression) of Flag-tagged Rho-OR (chaperones: None) |
| --- | --- | --- | --- | --- | --- | --- | --- | --- |
| hOR51E2: human olfactory receptor OR51E2, Flag-tagged construct (protein, UniProt Q9H255 1-320, looked up, Flag tag, human olfactory receptor OR51E2, Flag-tagged construct) Olfactory receptor 51E2: MSSCNFTHATFVLIGIPGLEKAHFWVGFPLLSMYVVAMFGNCIVVFIVRTERSLHAPMYLFLCMLAAIDLALSTSTMPKILALFWFDSREISFEACLTQMFFIHALSAIESTILLAMAFDRYVAICHPLRHAAVLNNTVTAQIGIVAVVRGSLFFFPLPLLIKRLAFCHSNVLSHSYCVHQDVMKLAYADTLPNVVYGLTAILLVMGVDVMFISLSYFLIIRTVLQLPSKSERAKAFGTCVSHIGVVLAFYVPLIGLSVVHRFGNSLHPIVRVVMGDIYLLLPPVINPIIYGAKTKQIRTRVLAMFKISCDKDLQAVGGK | + (OR surface expression detected in the majority of fields of view (>90% of all fields of view)) | + (OR surface expression detected in the majority of fields of view (>90% of all fields of view)) | + (OR surface expression detected in the majority of fields of view (>90% of all fields of view)) | + (OR surface expression detected in the majority of fields of view (>90% of all fields of view)) | + (OR surface expression detected in the majority of fields of view (>90% of all fields of view)) | + (OR surface expression detected in the majority of fields of view (>90% of all fields of view)) | + (OR surface expression detected in the majority of fields of view (>90% of all fields of view)) | + (OR surface expression detected in the majority of fields of view (>90% of all fields of view)) |
| hOR52B2: human homologue of Olfr691, Flag-tagged olfactory receptor construct (protein, UniProt Q96RD2 1-323, looked up, Flag tag, human homologue of Olfr691, Flag-tagged olfactory receptor construct) Olfactory receptor 52B2: MSHTNVTIFHPAVFVLPGIPGLEAYHIWLSIPLCLIYITAVLGNSILIVVIVMERNLHVPMYFFLSMLAVMDILLSTTTVPKALAIFWLQAHNIAFDACVTQGFFVHMMFVGESAILLAMAFDRFVAICAPLRYTTVLTWPVVGRIALAVITRSFCIIFPVIFLLKRLPFCLTNIVPHSYCEHIGVARLACADITVNIWYGFSVPIVMVILDVILIAVSYSLILRAVFRLPSQDARHKALSTCGSHLCVILMFYVPSFFTLLTHHFGRNIPQHVHILLANLYVAVPPMLNPIVYGVKTKQIREGVAHRFFDIKTWCCTSPLGS | + (OR surface expression detected in the majority of fields of view (>90% of all fields of view)) | + (OR surface expression detected in the majority of fields of view (>90% of all fields of view)) | + (OR surface expression detected in the majority of fields of view (>90% of all fields of view)) | + (OR surface expression detected in the majority of fields of view (>90% of all fields of view)) | − | − | − | − |
